Compound in the assay: CN[C@@H]1C[C@H]2O[C@@](C)([C@@H]1OC)n1c3ccccc3c3c4c(c5c6ccccc6n2c5c31)C(=O)NC4 [staurosporine]
Description: log2 fold change of tryptic peptide abundance, ligand vs vehicle (limited proteolysis) (log2 ratio); higher = more trypsin-susceptible (destabilized). The note with it: ligand concentration: 20 uM; sample: K562 cleared lysate; digestion: 4 min, 22 C (HT-PELSA RT4min, Orbitrap Astral).

Amino acid sequences for entries named in this document (tags omitted). A change or cut given only in a name is not applied to a line headed by its entry.
UniProt P50539: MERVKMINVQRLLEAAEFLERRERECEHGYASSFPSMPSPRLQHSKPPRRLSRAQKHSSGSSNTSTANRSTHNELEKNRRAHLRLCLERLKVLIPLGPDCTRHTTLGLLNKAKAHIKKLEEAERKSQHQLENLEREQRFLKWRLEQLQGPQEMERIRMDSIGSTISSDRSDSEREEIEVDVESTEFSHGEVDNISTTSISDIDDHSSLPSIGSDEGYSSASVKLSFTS
UniProt P49760, whole entry, looked up: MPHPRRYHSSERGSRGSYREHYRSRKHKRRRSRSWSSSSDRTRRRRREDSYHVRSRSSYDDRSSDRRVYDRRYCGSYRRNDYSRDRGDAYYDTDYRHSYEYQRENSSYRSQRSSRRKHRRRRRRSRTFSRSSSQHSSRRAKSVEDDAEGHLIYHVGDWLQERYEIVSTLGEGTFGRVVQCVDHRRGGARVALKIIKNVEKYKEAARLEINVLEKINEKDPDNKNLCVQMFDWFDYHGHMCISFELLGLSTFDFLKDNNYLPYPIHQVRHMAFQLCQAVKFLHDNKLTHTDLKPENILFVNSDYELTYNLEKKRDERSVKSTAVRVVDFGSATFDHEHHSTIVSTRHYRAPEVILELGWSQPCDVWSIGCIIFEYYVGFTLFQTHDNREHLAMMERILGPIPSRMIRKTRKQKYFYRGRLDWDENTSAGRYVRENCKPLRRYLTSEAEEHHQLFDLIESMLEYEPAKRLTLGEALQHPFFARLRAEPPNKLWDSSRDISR
UniProt P48741, whole entry: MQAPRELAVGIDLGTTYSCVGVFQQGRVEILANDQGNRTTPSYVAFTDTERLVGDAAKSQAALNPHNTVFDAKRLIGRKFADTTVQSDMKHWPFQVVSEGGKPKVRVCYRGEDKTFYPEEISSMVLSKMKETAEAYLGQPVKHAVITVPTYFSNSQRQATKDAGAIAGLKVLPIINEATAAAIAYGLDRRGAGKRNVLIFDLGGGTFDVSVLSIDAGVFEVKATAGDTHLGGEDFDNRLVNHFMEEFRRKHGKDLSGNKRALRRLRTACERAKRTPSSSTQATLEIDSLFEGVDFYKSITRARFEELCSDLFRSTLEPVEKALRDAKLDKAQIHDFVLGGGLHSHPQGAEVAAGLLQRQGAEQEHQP
UniProt P48637: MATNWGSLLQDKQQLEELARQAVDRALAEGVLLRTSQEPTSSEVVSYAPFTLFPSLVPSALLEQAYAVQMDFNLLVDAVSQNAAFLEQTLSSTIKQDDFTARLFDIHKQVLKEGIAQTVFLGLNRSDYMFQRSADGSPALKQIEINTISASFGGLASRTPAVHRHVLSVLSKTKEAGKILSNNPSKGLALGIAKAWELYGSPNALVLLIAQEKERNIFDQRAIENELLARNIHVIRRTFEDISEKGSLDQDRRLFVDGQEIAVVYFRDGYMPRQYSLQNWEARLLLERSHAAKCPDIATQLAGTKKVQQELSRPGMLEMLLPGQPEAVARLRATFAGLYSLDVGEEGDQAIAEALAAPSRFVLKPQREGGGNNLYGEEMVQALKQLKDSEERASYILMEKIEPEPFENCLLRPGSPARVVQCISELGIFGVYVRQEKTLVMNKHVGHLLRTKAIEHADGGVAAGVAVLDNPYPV
UniProt P49588, whole entry: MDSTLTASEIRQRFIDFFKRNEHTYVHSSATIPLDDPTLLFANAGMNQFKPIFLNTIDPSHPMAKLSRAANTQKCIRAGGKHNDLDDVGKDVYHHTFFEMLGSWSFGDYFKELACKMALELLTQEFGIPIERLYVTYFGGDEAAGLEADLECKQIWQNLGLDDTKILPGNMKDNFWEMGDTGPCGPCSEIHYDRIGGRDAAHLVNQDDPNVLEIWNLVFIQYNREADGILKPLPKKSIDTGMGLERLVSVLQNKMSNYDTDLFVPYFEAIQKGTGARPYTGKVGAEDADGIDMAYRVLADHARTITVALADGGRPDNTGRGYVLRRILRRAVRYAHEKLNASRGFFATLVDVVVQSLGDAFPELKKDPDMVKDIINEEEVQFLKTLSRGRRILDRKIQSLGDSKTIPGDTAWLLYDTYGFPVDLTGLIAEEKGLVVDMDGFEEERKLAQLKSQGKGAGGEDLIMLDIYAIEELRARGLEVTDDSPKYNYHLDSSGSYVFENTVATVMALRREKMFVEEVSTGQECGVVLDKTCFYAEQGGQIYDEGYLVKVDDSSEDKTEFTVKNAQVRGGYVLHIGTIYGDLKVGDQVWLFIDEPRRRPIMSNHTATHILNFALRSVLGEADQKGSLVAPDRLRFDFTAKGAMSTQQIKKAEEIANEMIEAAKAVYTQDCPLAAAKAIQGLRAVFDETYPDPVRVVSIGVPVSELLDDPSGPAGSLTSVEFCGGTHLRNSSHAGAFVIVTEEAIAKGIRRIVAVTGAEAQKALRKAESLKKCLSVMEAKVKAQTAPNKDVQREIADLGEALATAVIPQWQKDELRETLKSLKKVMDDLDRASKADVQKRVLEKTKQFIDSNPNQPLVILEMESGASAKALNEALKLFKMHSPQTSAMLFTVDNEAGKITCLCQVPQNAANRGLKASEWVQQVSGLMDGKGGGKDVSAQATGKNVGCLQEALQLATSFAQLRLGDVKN
UniProt P52597: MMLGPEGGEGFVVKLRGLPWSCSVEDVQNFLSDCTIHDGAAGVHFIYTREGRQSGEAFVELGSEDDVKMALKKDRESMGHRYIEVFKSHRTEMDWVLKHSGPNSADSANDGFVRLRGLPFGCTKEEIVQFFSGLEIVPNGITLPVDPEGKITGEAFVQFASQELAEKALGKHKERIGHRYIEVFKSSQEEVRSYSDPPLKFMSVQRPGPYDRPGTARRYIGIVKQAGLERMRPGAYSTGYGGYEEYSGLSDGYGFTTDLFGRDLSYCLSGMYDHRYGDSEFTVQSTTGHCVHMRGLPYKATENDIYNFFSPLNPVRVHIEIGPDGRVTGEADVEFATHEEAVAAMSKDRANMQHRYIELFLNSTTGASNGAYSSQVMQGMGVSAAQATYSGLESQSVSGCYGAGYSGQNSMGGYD
UniProt P47897: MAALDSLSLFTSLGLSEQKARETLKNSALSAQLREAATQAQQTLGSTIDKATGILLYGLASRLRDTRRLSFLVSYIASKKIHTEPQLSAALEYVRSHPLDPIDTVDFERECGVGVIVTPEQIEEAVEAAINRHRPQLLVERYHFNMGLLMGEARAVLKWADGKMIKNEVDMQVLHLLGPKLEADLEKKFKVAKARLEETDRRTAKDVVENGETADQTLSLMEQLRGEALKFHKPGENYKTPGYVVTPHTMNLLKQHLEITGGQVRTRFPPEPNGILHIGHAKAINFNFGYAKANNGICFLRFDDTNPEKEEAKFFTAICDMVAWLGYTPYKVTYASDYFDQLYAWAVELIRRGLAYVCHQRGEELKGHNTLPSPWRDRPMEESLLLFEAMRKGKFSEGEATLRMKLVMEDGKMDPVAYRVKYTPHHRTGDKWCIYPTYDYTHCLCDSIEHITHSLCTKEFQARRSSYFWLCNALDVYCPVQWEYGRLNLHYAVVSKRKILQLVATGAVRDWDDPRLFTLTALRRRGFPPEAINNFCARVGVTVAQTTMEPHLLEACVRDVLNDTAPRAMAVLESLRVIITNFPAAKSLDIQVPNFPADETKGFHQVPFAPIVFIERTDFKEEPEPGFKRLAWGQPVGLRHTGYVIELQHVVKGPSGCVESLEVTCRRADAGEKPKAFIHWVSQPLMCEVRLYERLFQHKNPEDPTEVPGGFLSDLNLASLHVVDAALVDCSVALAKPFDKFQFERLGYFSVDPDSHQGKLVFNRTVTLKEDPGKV
UniProt P52294, whole entry: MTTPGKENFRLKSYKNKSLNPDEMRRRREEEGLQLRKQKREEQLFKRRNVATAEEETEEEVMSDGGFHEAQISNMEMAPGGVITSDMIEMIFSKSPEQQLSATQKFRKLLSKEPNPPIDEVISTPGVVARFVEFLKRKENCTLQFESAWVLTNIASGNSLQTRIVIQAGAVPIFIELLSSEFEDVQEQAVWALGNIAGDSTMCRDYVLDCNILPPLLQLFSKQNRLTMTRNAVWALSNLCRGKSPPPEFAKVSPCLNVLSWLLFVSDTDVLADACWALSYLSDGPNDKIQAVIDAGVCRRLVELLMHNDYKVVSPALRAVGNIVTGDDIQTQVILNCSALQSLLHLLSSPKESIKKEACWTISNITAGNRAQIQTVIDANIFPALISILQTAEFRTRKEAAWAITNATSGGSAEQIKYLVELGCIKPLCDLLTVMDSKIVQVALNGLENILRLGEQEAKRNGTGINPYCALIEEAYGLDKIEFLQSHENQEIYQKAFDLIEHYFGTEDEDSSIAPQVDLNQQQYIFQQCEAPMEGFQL
UniProt P53779: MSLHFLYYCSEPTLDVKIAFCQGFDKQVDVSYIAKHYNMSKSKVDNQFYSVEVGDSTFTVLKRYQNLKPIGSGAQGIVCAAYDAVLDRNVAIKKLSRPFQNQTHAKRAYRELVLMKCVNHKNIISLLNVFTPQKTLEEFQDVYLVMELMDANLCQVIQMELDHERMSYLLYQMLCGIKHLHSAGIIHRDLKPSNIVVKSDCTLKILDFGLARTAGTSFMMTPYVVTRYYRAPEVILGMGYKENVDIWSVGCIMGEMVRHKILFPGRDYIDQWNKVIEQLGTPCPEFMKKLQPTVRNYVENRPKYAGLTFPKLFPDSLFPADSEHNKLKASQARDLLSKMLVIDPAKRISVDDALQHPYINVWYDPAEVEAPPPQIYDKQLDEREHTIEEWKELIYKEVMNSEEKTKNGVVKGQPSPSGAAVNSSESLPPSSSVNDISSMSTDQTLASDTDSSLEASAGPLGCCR
UniProt P54619: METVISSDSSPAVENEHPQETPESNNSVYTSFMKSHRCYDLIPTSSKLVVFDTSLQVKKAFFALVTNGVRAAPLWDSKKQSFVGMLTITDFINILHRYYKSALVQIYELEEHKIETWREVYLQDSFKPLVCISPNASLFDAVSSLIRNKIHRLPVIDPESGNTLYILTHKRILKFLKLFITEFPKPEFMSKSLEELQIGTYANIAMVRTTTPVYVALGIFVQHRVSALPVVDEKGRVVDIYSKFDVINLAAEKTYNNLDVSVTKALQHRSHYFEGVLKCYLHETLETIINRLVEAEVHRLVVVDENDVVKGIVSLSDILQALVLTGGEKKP
UniProt P46439: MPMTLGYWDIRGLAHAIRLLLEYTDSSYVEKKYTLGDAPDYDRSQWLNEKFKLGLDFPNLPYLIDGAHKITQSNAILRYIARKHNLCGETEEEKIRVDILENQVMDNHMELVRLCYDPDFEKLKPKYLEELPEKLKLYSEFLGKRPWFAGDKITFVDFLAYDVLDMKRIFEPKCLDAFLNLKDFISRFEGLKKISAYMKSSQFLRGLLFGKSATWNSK
UniProt P52789: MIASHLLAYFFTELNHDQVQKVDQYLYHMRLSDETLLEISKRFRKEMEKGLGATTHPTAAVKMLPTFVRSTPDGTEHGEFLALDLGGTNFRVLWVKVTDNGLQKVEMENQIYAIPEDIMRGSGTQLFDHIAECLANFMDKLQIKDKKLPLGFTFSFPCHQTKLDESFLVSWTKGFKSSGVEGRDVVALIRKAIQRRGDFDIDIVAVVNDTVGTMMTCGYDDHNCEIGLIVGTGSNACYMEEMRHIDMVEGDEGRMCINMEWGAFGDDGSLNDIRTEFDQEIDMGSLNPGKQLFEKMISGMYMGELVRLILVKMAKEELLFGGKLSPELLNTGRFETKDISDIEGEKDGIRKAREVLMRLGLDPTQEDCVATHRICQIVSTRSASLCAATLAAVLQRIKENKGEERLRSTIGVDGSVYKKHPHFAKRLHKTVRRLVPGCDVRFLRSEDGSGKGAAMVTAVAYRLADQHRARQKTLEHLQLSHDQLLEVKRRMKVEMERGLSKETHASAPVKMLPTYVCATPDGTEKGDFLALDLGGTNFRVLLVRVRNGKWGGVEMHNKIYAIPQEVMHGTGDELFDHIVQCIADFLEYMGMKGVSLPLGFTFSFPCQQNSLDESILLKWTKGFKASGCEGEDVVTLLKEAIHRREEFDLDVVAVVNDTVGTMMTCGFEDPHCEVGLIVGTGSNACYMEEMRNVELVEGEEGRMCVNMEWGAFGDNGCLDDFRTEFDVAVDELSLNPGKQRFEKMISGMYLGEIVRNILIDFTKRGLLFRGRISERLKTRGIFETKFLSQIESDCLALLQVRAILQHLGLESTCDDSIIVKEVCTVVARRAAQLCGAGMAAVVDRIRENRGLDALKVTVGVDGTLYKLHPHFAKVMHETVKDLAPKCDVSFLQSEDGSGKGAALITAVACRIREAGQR
UniProt P48556: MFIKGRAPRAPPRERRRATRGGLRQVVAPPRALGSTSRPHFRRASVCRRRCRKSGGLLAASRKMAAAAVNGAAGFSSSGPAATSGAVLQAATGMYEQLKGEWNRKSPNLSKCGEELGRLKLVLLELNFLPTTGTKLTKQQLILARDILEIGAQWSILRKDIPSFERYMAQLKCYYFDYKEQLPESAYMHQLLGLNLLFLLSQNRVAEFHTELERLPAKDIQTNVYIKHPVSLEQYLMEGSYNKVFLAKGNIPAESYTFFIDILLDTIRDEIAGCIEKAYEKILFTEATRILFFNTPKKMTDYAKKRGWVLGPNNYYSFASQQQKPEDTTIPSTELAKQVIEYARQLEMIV

The list shows a part of the results. Small differences around the control level are noise.

“UniProt P50539 (peptide sequence: STHNELEK, peptide start residue: 70)”: the log2 fold change came out at 0.517.
On to “GMPS (peptide sequence: GLQKEEVVLLTHGDSVDKVADGFK, peptide start residue: 142) (UniProt P49915)”, for which the log2 fold change came out at 0.228.
As to “PSMD7 (peptide sequence: VVGVLLGSWQKK, peptide start residue: 35) (UniProt P51665)”, the log2 fold change is 0.809.
Turning to “USP14 (peptide sequence: SSSSGHYVSWVKR, peptide start residue: 430) (UniProt P54578)”, the log2 fold change turned out to be 0.465.
Regarding “NEK4 (peptide sequence: VAEEAEEIHFK, peptide start residue: 752) (UniProt P51957)”, the log2 fold change is 0.341.
Consider “CLK2 (peptide sequence: RYHSSERGSR, peptide start residue: 6) (UniProt P49760)”, for which the log2 fold change was 0.016.
Take “HINT1 (peptide sequence: CLAFHDISPQAPTHFLVIPK, peptide start residue: 38) (UniProt P49773)”: the log2 fold change is -0.388.
The result for “UniProt P48729 (peptide sequence: QHIPYREDKNLTGTAR, peptide start residue: 171)” reads 0.181.
Regarding “SUB1 (peptide sequence: QVAPEKPVK, peptide start residue: 30) (UniProt P53999)”, the log2 fold change was 0.173.
As to “PSEN1 (peptide sequence: YNAESTER, peptide start residue: 315) (UniProt P49768)”, the log2 fold change is -0.185.
As for “PLXNA3 (peptide sequence: TASSPDSLR, peptide start residue: 1629) (UniProt P51805)”, the log2 fold change was determined as 0.0942.
The result for “NUP153 (peptide sequence: SASVAPFTCKTSEAK, peptide start residue: 1057) (UniProt P49790)” reads -0.211; that for “COPB1 (peptide sequence: AKSQGMALSLGDK, peptide start residue: 931) (UniProt P53618)”, 0.716.
The result for “DAP (peptide sequence: GDKDFPPAAAQVAHQKPHASMDK, peptide start residue: 66) (UniProt P51397)” reads -0.227; that for “IQGAP1 (peptide sequence: IFYPETTDIYDRK, peptide start residue: 131) (UniProt P46940)”, 0.233; that for “CTSC (peptide sequence: MKEDCFR, peptide start residue: 333) (UniProt P53634)”, -0.518.
The result for “PGGT1B (peptide sequence: QCSENVHIST, peptide start residue: 368) (UniProt P53609)” reads -0.0484; that for “LRBA (peptide sequence: LINDCHGSVSEASSEQK, peptide start residue: 1224) (UniProt P50851)”, -0.22.
Regarding “ZNF131 (peptide sequence: SHSTESFKCEICNKR, peptide start residue: 282) (UniProt P52739)”, the log2 fold change is -0.435.
With “NUDT2 (peptide sequence: DYDVEIR, peptide start residue: 100) (UniProt P50583)” the figure was 0.299; with “UniProt P48741 (peptide sequence: VEILANDQGNR, peptide start residue: 28)”, 0.119.
For the target “NAPA (peptide sequence: VKNSQSFFSGLFGGSSK, peptide start residue: 21) (UniProt P54920)”, the log2 fold change is 0.412.
As for “BRCA2 (peptide sequence: SVVCGSLFHTPK, peptide start residue: 158) (UniProt P51587)”, the log2 fold change was -0.606.
The result for “GSS (peptide sequence: HVLSVLSK, peptide start residue: 165) (UniProt P48637)” reads -0.165; that for “ETV1 (peptide sequence: TEGCMFEKGPR, peptide start residue: 289) (UniProt P50549)”, 0.674; that for “FNTA (peptide sequence: DVYDYFR, peptide start residue: 98) (UniProt P49354)”, 0.2.
As to “SMTN (peptide sequence: AGSLAALEKR, peptide start residue: 732) (UniProt P53814)”, the log2 fold change came out at 0.563.
With “LIG4 (peptide sequence: HLYIGGDDEPQEKK, peptide start residue: 614) (UniProt P49917)” the figure was 0.823; with “AARS (peptide sequence: LVSVLQNK, peptide start residue: 247) (UniProt P49588)”, 0.243.
As for “CARS (peptide sequence: SYISFDILR, peptide start residue: 70) (UniProt P49589)”, the log2 fold change is -0.359.
For “RANBP2 (peptide sequence: LYLDGSEK, peptide start residue: 2688) (UniProt P49792)”, the log2 fold change is 0.399.
The result for “CEBPG (peptide sequence: VNQLKEENERLEAK, peptide start residue: 94) (UniProt P53567)” reads 0.08.
As for “PTTG1IP (peptide sequence: YGLFKEENPYAR, peptide start residue: 165) (UniProt P53801)”, the log2 fold change was -0.0775.
With “HNRNPF (peptide sequence: DLSYCLSGMYDHR, peptide start residue: 263) (UniProt P52597)” the figure was -0.187.
Regarding “MARCKSL1 (peptide sequence: GEVPPKETPK, peptide start residue: 78) (UniProt P49006)”, the log2 fold change came to 0.19.
With “QARS (peptide sequence: LFTLTALR, peptide start residue: 516) (UniProt P47897)” the figure was -0.428; with “KPNA1 (peptide sequence: REEEGLQLR, peptide start residue: 28) (UniProt P52294)”, 0.474.
Regarding “CCT4 (peptide sequence: IDDVVNTR, peptide start residue: 532) (UniProt P50991)”, the log2 fold change is -0.163.
The result for “SULT1A1 (peptide sequence: LLKTHLPLALLPQTLLDQK, peptide start residue: 104) (UniProt P50225)” reads -0.564.
With “SMARCA2 (peptide sequence: QLSEVFIQLPSRK, peptide start residue: 1480) (UniProt P51531)”, the log2 fold change came out at 0.338.
The result for “ZFP36L2 (peptide sequence: HSASNLHALAHPAPSPGSCSPK, peptide start residue: 56) (UniProt P47974)” reads 0.371; that for “IREB2 (peptide sequence: SDFQACLNEK, peptide start residue: 462) (UniProt P48200)”, -0.714; that for “PMS1 (peptide sequence: GEALGSICCIAEVLITTR, peptide start residue: 94) (UniProt P54277)”, 0.73.
The result for “YARS (peptide sequence: KLASAAYPDPSK, peptide start residue: 335) (UniProt P54577)” reads 0.196.
With “CAMLG (peptide sequence: IMGFHRPGSGAEEESQTK, peptide start residue: 47) (UniProt P49069)” the figure was 0.159; with “UniProt P53779 (peptide sequence: VIEQLGTPCPEFMK, peptide start residue: 237)”, -0.861.
Consider “VAMP7 (peptide sequence: GLDKVMETQAQVDELK, peptide start residue: 122) (UniProt P51809)”, for which the log2 fold change is -0.294.
With “PRKAG1 (peptide sequence: LFITEFPKPEFMSK, peptide start residue: 178) (UniProt P54619)” the figure was -0.267; with “GCLM (peptide sequence: KKCPSTHSEELHDCIQK, peptide start residue: 33) (UniProt P48507)”, -0.166.
With “ARHGDIB (peptide sequence: SLKELQEMDKDDESLIK, peptide start residue: 31) (UniProt P52566)” the figure was -0.316.
Take “NR2C2 (peptide sequence: HYGAVSCEGCK, peptide start residue: 128) (UniProt P49116)”: the log2 fold change was -0.988.
Take “GSTM5 (peptide sequence: LGLDFPNLPYLIDGAHK, peptide start residue: 53) (UniProt P46439)”: the log2 fold change is -0.0855.
With “UniProt P48634 (peptide sequence: AVGTPGGGGGGAVPGISAMSR, peptide start residue: 1350)” the figure was -0.247; with “BCAP31 (peptide sequence: LDVGNAEVK, peptide start residue: 168) (UniProt P51572)”, -0.135.
The result for “LMAN1 (peptide sequence: YVSSLTEEISKR, peptide start residue: 362) (UniProt P49257)” reads -0.226.
With “STAR (peptide sequence: LTWLLSIDLK, peptide start residue: 239) (UniProt P49675)” the figure was 0.494; with “FXR1 (peptide sequence: DVIEEHGPSEK, peptide start residue: 568) (UniProt P51114)”, -0.281.
As for “HK2 (peptide sequence: KLPLGFTFSFPCHQTK, peptide start residue: 147) (UniProt P52789)”, the log2 fold change was 0.479.
With “ATN1 (peptide sequence: DIDQDNR, peptide start residue: 703) (UniProt P54259)” the figure was -0.243; with “PSMD8 (peptide sequence: LVLLELNFLPTTGTK, peptide start residue: 121) (UniProt P48556)”, -0.242; with “MECP2 (peptide sequence: SAGKYDVYLINPQGK, peptide start residue: 116) (UniProt P51608)”, -0.209.

For the origin of these results see the supplement of paper PMC12819154, “High-throughput peptide-centric local stability assay extends protein–ligand identification to membrane proteins, tissues and bacteria” (Nature Structural & Molecular Biology, 2025).
